Measured values as given in paper PMC5762300.
These are yes or no findings as the source states them, for the method shown. In cells and extracts the contact can be indirect. Some entries that bind do so weakly or less than the wild type. Sequences can lack the tags named with a protein.

By UniProt entry, the sequences of proteins in these tests, tags left out. Where a name states a change or a piece, a line headed by the entry shows the natural chain unless it says otherwise.
UniProt P51809: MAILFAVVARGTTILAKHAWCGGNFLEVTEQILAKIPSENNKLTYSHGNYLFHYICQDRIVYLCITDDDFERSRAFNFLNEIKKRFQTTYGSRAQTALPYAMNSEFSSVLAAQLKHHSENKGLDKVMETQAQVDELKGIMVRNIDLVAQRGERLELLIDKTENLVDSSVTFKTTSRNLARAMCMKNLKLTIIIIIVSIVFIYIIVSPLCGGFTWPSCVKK

Biological target: T1, HA-tagged full human C3G (human) (UniProt Q13905)
T1 sequence: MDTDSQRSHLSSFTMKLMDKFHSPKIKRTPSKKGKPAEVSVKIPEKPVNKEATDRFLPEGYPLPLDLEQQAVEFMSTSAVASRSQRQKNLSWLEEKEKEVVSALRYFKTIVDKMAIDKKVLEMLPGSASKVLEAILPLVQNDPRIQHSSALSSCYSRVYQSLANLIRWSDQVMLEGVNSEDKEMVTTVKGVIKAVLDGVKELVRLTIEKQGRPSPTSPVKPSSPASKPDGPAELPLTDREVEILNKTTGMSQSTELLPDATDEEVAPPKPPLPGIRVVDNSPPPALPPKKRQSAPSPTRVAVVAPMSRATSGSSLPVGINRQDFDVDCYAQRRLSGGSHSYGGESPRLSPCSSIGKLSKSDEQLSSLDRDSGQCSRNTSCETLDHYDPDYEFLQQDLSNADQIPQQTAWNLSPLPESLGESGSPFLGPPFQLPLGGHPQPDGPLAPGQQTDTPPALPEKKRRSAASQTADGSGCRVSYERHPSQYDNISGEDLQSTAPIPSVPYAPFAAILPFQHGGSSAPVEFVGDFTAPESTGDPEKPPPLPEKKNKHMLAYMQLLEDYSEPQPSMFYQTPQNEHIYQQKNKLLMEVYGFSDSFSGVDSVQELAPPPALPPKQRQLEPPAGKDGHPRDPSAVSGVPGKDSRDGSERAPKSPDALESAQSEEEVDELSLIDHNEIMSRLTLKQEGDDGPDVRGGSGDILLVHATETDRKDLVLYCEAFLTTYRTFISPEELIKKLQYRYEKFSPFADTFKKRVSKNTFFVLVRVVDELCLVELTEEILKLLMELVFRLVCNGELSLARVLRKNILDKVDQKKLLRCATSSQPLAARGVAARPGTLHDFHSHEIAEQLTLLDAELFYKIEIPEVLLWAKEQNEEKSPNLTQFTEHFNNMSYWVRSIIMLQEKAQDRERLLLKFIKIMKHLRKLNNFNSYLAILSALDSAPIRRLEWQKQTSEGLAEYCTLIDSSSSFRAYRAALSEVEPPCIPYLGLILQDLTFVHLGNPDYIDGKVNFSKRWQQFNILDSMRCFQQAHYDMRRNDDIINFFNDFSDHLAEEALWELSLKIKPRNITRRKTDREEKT
Assay: co-IP; HEK293T cells co-transfected with HA-C3G and CFP-VAMP-7 fusion proteins; immunoprecipitated with anti-HA.11; VAMP-7 detected with anti-TI-VAMP

binding	Substance
binds	CFP-VAMP7-CT, C-terminal (SNARE) domain of VAMP-7 (aminoacids 121-188) (from UniProt P51809 121-188) (domain or fragment)
binds	CFP-VAMP7-NT, N-terminal (longin) domain of VAMP-7 (aminoacids 1-120) (from UniProt P51809 1-120) (domain or fragment)
binds	CFP-VAMP7-cyto, VAMP-7 cytosolic domain (aminoacids 1-188) (from UniProt P51809 1-188) (domain or fragment)
